The subject of test [1] is Human fetal astrocytes. The experiment in a line: loss of total cells relative to no-compound high-control median (toxicity); higher = more toxic (fewer cells). The conditions noted are these: 24 h.
In test [2] the test system is Human fetal astrocytes. In words: synaptosome phagocytosis (pHrodo/calcein intensity ratio) relative to plate median of data wells; higher = more phagocytosis. The note with it: 24 h.

SMILES strings stand for the structures. Where a name gives a salt, the structure may show the parent alone. Some of the results follow. Many values rest on one well or one pass, so single values are uncertain.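 Labelled rat cortical synaptosomes were engulfed by primary human fetal astrocytes. Engulfment equaled a red/green ratio, corrected for calcein live-cell signal and normalized to the plate median. Compounds were toxic when calcein dropped over 30%, and reduced phagocytosis when below 70% of the median above 5 µM.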

Regarding `NC1CCN(O)C1=O` (racemic), the “loss of total cells” value was 1.5% in the test on Human fetal astrocytes [1] (1.39 µM); -7.5% in the test on Human fetal astrocytes [1] (2.78 µM); -6.9% in the test on Human fetal astrocytes [1] (5.56 µM); -4% in the test with Human fetal astrocytes [1] (11.11 µM); -2.6% with Human fetal astrocytes [1] (22.22 µM). Besides, the synaptosome phagocytosis with Human fetal astrocytes [2] (1.39 µM) is 90.3%; in the test on Human fetal astrocytes [2] (2.78 µM), 90.7%; with Human fetal astrocytes [2] (5.56 µM) it was 118%; in the test on Human fetal astrocytes [2] (11.11 µM) it was 106%; with Human fetal astrocytes [2] (22.22 µM), 68.1%.

Consider `C[C@@H](N)[C@H]1CC[C@H](C(=O)Nc2ccncc2)CC1`, for which the “loss of total cells” value is -13.8% with Human fetal astrocytes [1] (1.39 µM); -22.2% in the test with Human fetal astrocytes [1] (2.78 µM); 16.5% in the test with Human fetal astrocytes [1] (5.56 µM); -10.3% in the test with Human fetal astrocytes [1] (11.11 µM); -25.6% with Human fetal astrocytes [1] (22.22 µM). The synaptosome phagocytosis was 102% in the test with Human fetal astrocytes [2] (1.39 µM); 88.4% in the test on Human fetal astrocytes [2] (2.78 µM); 74.5% in the test on Human fetal astrocytes [2] (5.56 µM); 46.1% in the test with Human fetal astrocytes [2] (11.11 µM); 66% in the test with Human fetal astrocytes [2] (22.22 µM).

As to `COc1cc2c(cc1C(F)(F)F)N(C(=O)Nc1cc(F)cc(-c3cccnc3)c1)CC2`, the “loss of total cells” value was 7.9% in the test on Human fetal astrocytes [1] (1.39 µM); -0.9% in the test with Human fetal astrocytes [1] (2.78 µM); 17.3% in the test on Human fetal astrocytes [1] (5.56 µM); -10.3% in the test on Human fetal astrocytes [1] (11.11 µM); -5.6% in the test with Human fetal astrocytes [1] (22.22 µM). The synaptosome phagocytosis is 121% in the test with Human fetal astrocytes [2] (1.39 µM); 110% in the test on Human fetal astrocytes [2] (2.78 µM); 94.4% in the test with Human fetal astrocytes [2] (5.56 µM); 87.3% in the test on Human fetal astrocytes [2] (11.11 µM); 97.6% in the test on Human fetal astrocytes [2] (22.22 µM).

As for `CCCCCCCCCC[Si](C)(C)CCC(=O)NC(Cc1ccc(C)cc1)c1ccccc1` (stereo not given) [Sandoz 58-035], the “loss of total cells” value was -11.4% in the test on Human fetal astrocytes [1] (1.39 µM); -18.3% in the test on Human fetal astrocytes [1] (2.78 µM); -15.2% in the test on Human fetal astrocytes [1] (5.56 µM); -15.7% in the test with Human fetal astrocytes [1] (11.11 µM); 6.4% with Human fetal astrocytes [1] (22.22 µM). For the same compound, the synaptosome phagocytosis with Human fetal astrocytes [2] (1.39 µM) was 84.4%; in the test with Human fetal astrocytes [2] (2.78 µM) it was 62.8%; in the test on Human fetal astrocytes [2] (5.56 µM), 89.2%; with Human fetal astrocytes [2] (11.11 µM), 93.1%; in the test on Human fetal astrocytes [2] (22.22 µM), 85.1%.

With `NC(=O)OCC(COC(N)=O)c1ccccc1` [Felbamate], the “loss of total cells” value was -8.8% in the test with Human fetal astrocytes [1] (1.39 µM); -17.9% with Human fetal astrocytes [1] (2.78 µM); 4.9% in the test on Human fetal astrocytes [1] (5.56 µM); -4.9% in the test with Human fetal astrocytes [1] (11.11 µM); -4.8% in the test on Human fetal astrocytes [1] (22.22 µM). In addition, the synaptosome phagocytosis in the test on Human fetal astrocytes [2] (1.39 µM) was 89.3%; with Human fetal astrocytes [2] (2.78 µM), 92.9%; with Human fetal astrocytes [2] (5.56 µM), 116%; in the test with Human fetal astrocytes [2] (11.11 µM), 69.7%; in the test on Human fetal astrocytes [2] (22.22 µM) it was 94.3%.

On to `COC(=O)c1c(-c2cc(OC)c(OC)c(OC)c2)c2ccnc(OCc3ncccn3)c2c(=O)n1Cc1ccnc(C)c1`, for which the “loss of total cells” value in the test on Human fetal astrocytes [1] (1.39 µM) is -28.3%; with Human fetal astrocytes [1] (2.78 µM) it was -16.5%; with Human fetal astrocytes [1] (5.56 µM) it was 2.2%; in the test on Human fetal astrocytes [1] (11.11 µM), 18.8%; in the test with Human fetal astrocytes [1] (22.22 µM), -1.6%. The synaptosome phagocytosis in the test with Human fetal astrocytes [2] (1.39 µM) was 112%; in the test with Human fetal astrocytes [2] (2.78 µM) it was 130%; in the test on Human fetal astrocytes [2] (5.56 µM) it was 116%; in the test with Human fetal astrocytes [2] (11.11 µM), 128%; in the test with Human fetal astrocytes [2] (22.22 µM), 93.9%.

As to `CC1(C)C(=O)N(CCN2CCC(C(=O)c3ccc(F)cc3)CC2)c2ccccc21` [LY-310,762 hydrochloride], the “loss of total cells” value with Human fetal astrocytes [1] (1.39 µM) is -6.2%; in the test on Human fetal astrocytes [1] (2.78 µM), 22.2%; in the test on Human fetal astrocytes [1] (5.56 µM), 9.9%; in the test with Human fetal astrocytes [1] (11.11 µM), 22.9%; in the test on Human fetal astrocytes [1] (22.22 µM), 15.9%. In addition, the synaptosome phagocytosis in the test with Human fetal astrocytes [2] (1.39 µM) is 63.4%; with Human fetal astrocytes [2] (2.78 µM), 97.5%; with Human fetal astrocytes [2] (5.56 µM), 71%; in the test with Human fetal astrocytes [2] (11.11 µM), 67%; with Human fetal astrocytes [2] (22.22 µM), 62%.

Turning to `NC(N)=NC(=O)c1nc(Cl)c(N2CCCCCC2)nc1N` [5-(N,N-hexamethylene)amiloride], the “loss of total cells” value in the test with Human fetal astrocytes [1] (1.39 µM) was -2.2%; in the test with Human fetal astrocytes [1] (2.78 µM), -14.1%; with Human fetal astrocytes [1] (5.56 µM), -5.1%; with Human fetal astrocytes [1] (11.11 µM), -7.6%; in the test with Human fetal astrocytes [1] (22.22 µM) it was 10.2%. Also, the synaptosome phagocytosis was 92.4% in the test on Human fetal astrocytes [2] (1.39 µM); 92.5% in the test with Human fetal astrocytes [2] (2.78 µM); 112% in the test on Human fetal astrocytes [2] (5.56 µM); 87% with Human fetal astrocytes [2] (11.11 µM); 132% in the test on Human fetal astrocytes [2] (22.22 µM).

For the compound `COc1cc2c(cc1OC)[C@@H](c1ccccc1)CN(C)CC2`, the “loss of total cells” value in the test with Human fetal astrocytes [1] (1.39 µM) was -11.5%; in the test with Human fetal astrocytes [1] (2.78 µM) it was 8.7%; in the test on Human fetal astrocytes [1] (5.56 µM), 0.6%; in the test on Human fetal astrocytes [1] (11.11 µM) it was -9.6%; with Human fetal astrocytes [1] (22.22 µM), -7.4%. Besides, the synaptosome phagocytosis with Human fetal astrocytes [2] (1.39 µM) is 112%; in the test on Human fetal astrocytes [2] (2.78 µM), 102%; with Human fetal astrocytes [2] (5.56 µM), 95.7%; in the test with Human fetal astrocytes [2] (11.11 µM), 99.8%; in the test on Human fetal astrocytes [2] (22.22 µM), 79.4%.

With `CC(C)(C)NCC(O)COc1cccc2[nH]c(=O)[nH]c12` (racemic), the “loss of total cells” value is -8.8% in the test with Human fetal astrocytes [1] (1.39 µM); -9.4% with Human fetal astrocytes [1] (2.78 µM); 2.5% in the test with Human fetal astrocytes [1] (5.56 µM); -1.3% in the test on Human fetal astrocytes [1] (11.11 µM); 7.2% in the test with Human fetal astrocytes [1] (22.22 µM). Further, the synaptosome phagocytosis was 91.8% in the test on Human fetal astrocytes [2] (1.39 µM); 109% in the test on Human fetal astrocytes [2] (2.78 µM); 105% with Human fetal astrocytes [2] (5.56 µM); 91.1% in the test on Human fetal astrocytes [2] (11.11 µM); 101% with Human fetal astrocytes [2] (22.22 µM).
